Data as given in patent publication US11932870B2, “Compositions and methods for immune cell modulation in adoptive immunotherapies” (Fate Therapeutics, Inc., priority 2016, dated 2024).
At least one compound was matched to its structure with a doubt left.

Tests used:
viable CD8+ population = assay: T cell compound screen: CCR7+CD62L+ cells in the viable CD8+ population (flow cytometry); assay type: cell-based, human; settings: 10 μM, about 6 days; for CD8 Hit: anti-CD3/anti-CD28 beads, hit = Z-score > +2 for percent or absolute number CCR7+CD62L+ in CD8+; for number or ratio of cells co-expressing CCR7 and CD62L: viable CD8+ population
Source text: (§1) In Vitro T Cell Culture. Fresh leukopaks (AllCells, Alameda, CA) were obtained from healthy donors, from which T cells were negatively selected using the EasySep Human T cell Enrichment Kit (Stem Cell Technologies, Vancouver, Canada). The freshly isolated T cells were aliquoted and cryopreserved. On the day the screens were initiated, T cells were thawed and washed into X-Vivo 15 with 5% human AB serum, IL-2, pen/strep, and additional supplements. Cells were dispensed into flat-bottom 384-well plates at 5×10^5 cells/ml with anti-CD3/anti-CD28 beads. Individual compounds were added at a final concentration of 10 μM to each well from column 3 to column 22 of each plate. Positive and negative controls were added to additional wells. Cells were incubated for about 6 days at 37 degrees with 5% CO2.
(§2) Flow Cytometry. On Day 6 of culture, cells were stained with a fixable viability marker and fluorophore-conjugated antibodies: CD3, CD4, CD8, CD45RA, CD45RO, CD62L, CCR7, CD27, and CD122 (BD Biosciences, San Jose, CA; and BioLegend, San Diego, CA). Fluorescent absolute counting beads (Spherotech, Lake Forest, IL) were added just prior to acquisition. Data acquisition was performed on a BD Fortessa X-20 (BD Biosciences) and data were analyzed using Treestar software (FlowJo, Ashland, OR) and Spotfire (Tibco, Boston, MA).
(§3) These cells are characterized by expression of CCR7 and CD62L. Therefore, cells co-expressing both of these identifying markers were evaluated. Within the viable CD4+ population and viable CD8+ population, the percent of cells co-expressing CCR7 and CD62L was determined. The expression of either CD62L or CCR7 on T cells, as indicative of the desired T cell subsets, have been described as having favorable functional characteristics for CAR-T cell therapy, and potentially other adoptive T cell therapies.
(§4) The number of events in each of these gates relative to the number of absolute counting beads in each sample was calculated, defining a measure of the absolute number of naïve, stem cell memory, or central memory T cells within the CD4+ and/or CD8+ populations. A z-Score relative to the screened compound samples within each 384-well plate was calculated for each of these four values: 1) percent CCR7+CD62L+in CD4+, 2) percent CCR7+CD62L+in CD8+, 3) absolute relative number of CCR7+CD62L+in CD4+, and 4) absolute number of CCR7+CD62L+in CD8+(FIGS. 1A and 1i). Z-scores were also calculated for the percent viability of all cells within each sample and the relative absolute number of cells within each sample. A “Z-Score” is a statistical measurement of a score's relationship to the mean in a group of scores. AZ-score of 0 means the score is the same as the mean. […]

viable CD4+ population = assay: T cell compound screen: CCR7+CD62L+ cells in the viable CD4+ population (flow cytometry); assay type: cell-based, human; settings: 10 μM, about 6 days; for CD4 Hit: anti-CD3/anti-CD28 beads, hit = Z-score > +2 for percent or absolute number CCR7+CD62L+ in CD4+; for number or ratio of cells co-expressing CCR7 and CD62L: viable CD4+ population
Source text: as §1, §2, §3, §4

| SMILES | CD8 Hit (viable CD8+ population) | number or ratio of cells co-expressing CCR7 and CD62L (viable CD8+ population) | CD4 Hit (viable CD4+ population) | number or ratio of cells co-expressing CCR7 and CD62L (viable CD4+ population) |
| --- | --- | --- | --- | --- |
| Nc1nc(F)nc2c1ncn2[C@@H]1O[C@H](CO)[C@@H](O)[C@@H]1O [Fludarabine] | CD8 | increased |  |  |
| c1cc(-c2cnn3cc(-c4ccc(OCCN5CCCCC5)cc4)cnc23)ccn1 [Dorsomorphin] | CD8 | increased | CD4 | increased |
| CO[C@H]1C[C@@H]2CC[C@@H](C)[C@@](O)(O2)C(=O)C(=O)N2CCCC[C@H]2C(=O)O[C@H]([C@H](C)C[C@@H]2CC[C@@H](O)[C@H](OC)C2)CC(=O)[C@H](C)/C=C(\C)[C@@H](O)[C@@H](OC)C(=O)[C@H](C)C[C@H](C)/C=C/C=C/C=C/1C [rapamycin] |  |  | CD4 | increased |
